In PMC6700064:
Results are given in words; binding and its absence hold for the method and conditions named. Binding seen in cells or lysates may run through a third protein. Some results given as binding are weak or reduced against the parent protein; the word gives no strength.

Protein sequences, listed by entry. Tags and fused reporters are not part of them.
UniProt Q9H1P3: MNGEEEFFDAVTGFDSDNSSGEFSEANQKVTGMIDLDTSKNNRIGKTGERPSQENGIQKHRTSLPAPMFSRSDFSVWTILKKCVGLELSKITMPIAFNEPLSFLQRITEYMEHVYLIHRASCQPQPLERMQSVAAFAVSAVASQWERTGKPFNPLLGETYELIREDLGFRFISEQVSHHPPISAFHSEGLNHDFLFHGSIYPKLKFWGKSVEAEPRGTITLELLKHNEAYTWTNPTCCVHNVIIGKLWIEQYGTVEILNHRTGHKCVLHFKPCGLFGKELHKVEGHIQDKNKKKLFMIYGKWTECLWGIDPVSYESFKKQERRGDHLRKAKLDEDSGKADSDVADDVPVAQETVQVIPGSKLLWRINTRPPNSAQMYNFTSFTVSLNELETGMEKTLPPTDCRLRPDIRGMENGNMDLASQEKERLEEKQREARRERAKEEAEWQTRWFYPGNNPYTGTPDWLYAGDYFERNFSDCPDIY
UniProt P31939: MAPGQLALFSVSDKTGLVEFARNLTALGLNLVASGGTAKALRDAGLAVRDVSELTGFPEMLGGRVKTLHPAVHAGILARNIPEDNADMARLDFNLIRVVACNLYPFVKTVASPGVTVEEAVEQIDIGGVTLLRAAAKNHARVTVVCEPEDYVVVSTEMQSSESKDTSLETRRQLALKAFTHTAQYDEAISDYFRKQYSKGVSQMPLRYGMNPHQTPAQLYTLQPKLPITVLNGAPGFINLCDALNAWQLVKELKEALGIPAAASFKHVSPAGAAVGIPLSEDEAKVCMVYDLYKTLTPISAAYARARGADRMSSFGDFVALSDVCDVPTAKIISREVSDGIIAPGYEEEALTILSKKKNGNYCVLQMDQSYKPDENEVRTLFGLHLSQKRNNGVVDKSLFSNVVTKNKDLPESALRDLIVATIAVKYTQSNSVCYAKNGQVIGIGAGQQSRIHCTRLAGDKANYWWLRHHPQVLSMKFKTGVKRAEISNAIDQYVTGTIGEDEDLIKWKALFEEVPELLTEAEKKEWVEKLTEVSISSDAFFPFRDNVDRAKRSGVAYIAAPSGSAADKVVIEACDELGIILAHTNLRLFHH

Experiments:
GST-OSBPL2 = GST-OSBPL2 (UniProt Q9H1P3); test: pull-down; GST-OSBPL2 as bait, lysate of E. coli expressing His-ATIC; incubated with Anti-His, Anti-GST and Protein A/G overnight at 4 °C; washed with RIPA Lysis Buffer three times; only the target purified
[1] = target: Flag-tagged OSBPL2 (oxysterol-binding protein like 2) (UniProt Q9H1P3); test: co-IP; HEK293Ta cells expressing HA-ATIC or HA-ATIC truncations and Flag-OSBPL2; RIPA lysis buffer; Anti-FLAG M2 magnetic beads overnight at 4 °C; washed three times with RIPA; Western blot

Substance | binding (GST-OSBPL2) | binding [1]
His-ATIC (from UniProt P31939 1-592) (enzyme) | binds | 
HA-ATIC (5-aminoimidazole-4-carboxamide ribonucleotide formyltransferase/inosine monophosphate cyclohydrolase) (from UniProt P31939 1-592) (enzyme) |  | binds
